Laboratory results: PubChem BioAssay AID200 (DTP/NCI, 2004)
The list does not hold the whole screen: it gathers tests that were run many times, whatever their T/C, doses with no T/C, and many T/C values between a quarter and a half above the control. Other doses and runs of a compound stand elsewhere. T/C gives the treated animals as a percentage of the vehicle group. Some entries give survivors of the animals treated and no T/C: the source holds a T/C of zero for them, seemingly a mark for toxic or unscored doses. Some doses without a T/C left all or most animals alive at the check, yet need not have been tolerated: the source hardly ever lists a survival T/C far under the control, and the zero likely stands for such cases as well. Counts of survivors are from the toxicity check (mostly the fifth day) where no day follows; animals may have died later. Schedule codes are those of the source, taken here to give the interval after Q, in days (D) or hours (H), and the number of doses after X. Some entries were tested several times; the results are listed from low to high. Marks such as (2×) count equal records among those shown. Where survival is the endpoint, this PubChem deposit counts one and a half times the control or more as active, and values a quarter to a half above the control carry no call in these data; other NCI protocols may use other cut-offs. Some T/C values carry the count of animals alive at the toxicity check (mostly the fifth day); where none is given, no animal had died by that day.

Test system: B6C3F1 mice, B16 melanoma ip, median survival T/C
Assay: NCI In Vivo Anticancer Drug Screen. Data for tumor model B16 Melanoma (intraperitoneal) in B6C3F1 mice
Details: T/C endpoint: median survival time, higher T/C = longer survival
Summary of the method: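 Values are T/C ratios: the measurement in treated animals divided by that in vehicle-treated controls, using survival or tumor size in mice carrying transplantable tumors.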

[1] = dose: 25.0 mg/kg/injection, schedule: Q01DX009 (ip), vehicle: saline with Tween-80
[2] = dose: 50.0 mg/kg/injection, schedule: Q01DX009 (ip), vehicle: saline with Tween-80
[3] = dose: 100.0 mg/kg/injection, schedule: Q01DX009 (ip), vehicle: saline with Tween-80
[4] = dose: 50.0 mg/kg/injection, schedule: Q01DX009 (ip), vehicle: water
[5] = dose: 200.0 mg/kg/injection, schedule: Q01DX009 (ip), vehicle: saline with Tween-80
[6] = dose: 400.0 mg/kg/injection, schedule: Q01DX009 (ip), vehicle: saline with Tween-80
[7] = dose: 200.0 mg/kg/injection, schedule: Q01DX009 (ip), vehicle: saline
[8] = dose: 8.0 mg/kg/injection, schedule: Q01DX009 (ip), vehicle: saline

SMILES: O=CC(NC(=O)N(CCF)N=O)C(O)C(O)C(O)CO (centres undefined)
- T/C (dose: 7.5 mg/kg/injection, schedule: Q01DX001 (ip), vehicle: saline): 127 % of control
- T/C (dose: 15.0 mg/kg/injection, schedule: Q01DX001 (ip), vehicle: saline): 140 % of control

SMILES: CCC1=C[C@H]2CN(CCc3c([nH]c4ccccc34)[C@@](C(=O)OC)(c3cc4c(cc3OC)N(C)[C@H]3[C@@](O)(C(=O)NN)[C@H](O)[C@]5(CC)C=CCN6CC[C@]43[C@@H]65)C2)C1
- T/C (dose: 62.5 micrograms/kg/injection, schedule: Q01DX009 (ip), vehicle: water): 136 % of control
- survivor count (dose: 1000.0 micrograms/kg/injection, schedule: Q01DX009 (ip), vehicle: water): 1 of 10
- survivor count (dose: 2000.0 micrograms/kg/injection, schedule: Q01DX009 (ip), vehicle: water): 4 of 10

SMILES: CN=S(=O)(OCCCCCOS(=O)(=NC)c1ccccc1)c1ccccc1 (centres undefined)
- survivor count [1]: 7 of 7
- T/C [2]: 147 % of control
- survivor count [2]: 4 of 6
- survivor count [3]: 4 of 6

SMILES: C/C(=N\NC(=S)N1CCN(c2ccccn2)CC1)c1ccccn1
- survivor count [4]: 6 of 10
- survivor count (dose: 100.0 mg/kg/injection, schedule: Q01DX009 (ip), vehicle: water): 0 of 10

SMILES: CCCCCCCCCCCCCCCCNc1cccc2ccccc12
- survivor count [1]: 10 of 10
- survivor count [3]: 10 of 10

SMILES: COc1cccc2c1C(=O)c1c(O)c3c(c(O)c1C2=O)C[C@@](O)(C(=O)CO)C[C@@H]3OC1CC(NC(=O)C(N)CC(C)C)C(O)C(C)O1 (some centres undefined)
- survivor count (dose: 100.0 mg/kg/injection, schedule: Q01DX001 (ip), vehicle: saline): 8 of 10
- survivor count (dose: 200.0 mg/kg/injection, schedule: Q01DX001 (ip), vehicle: saline): 2 of 10

SMILES: COc1ccc2c(c1[N+](=O)[O-])CC[C@@H]1[C@@H]2CC[C@]2(C)C(=O)CC[C@@H]12
- T/C [5]: 125 % of control
- survivor count [6]: 10 of 10

SMILES: Nc1nc([Se]c2nc(N)nc3c2ncn3C2OC(CO)C(O)C2O)c2ncn(C3OC(CO)C(O)C3O)c2n1 (centres undefined)
- survivor count (dose: 400.0 mg/kg/injection, schedule: Q01DX009 (ip), vehicle: distilled water + Tween-80): 3 of 10

SMILES: C1CNCOC1
- survivor count [7]: 7 of 10

SMILES: NC(C(=O)O)c1ccc(CBr)cc1 (centres undefined)
- T/C (dose: 12.0 mg/kg/injection, schedule: Q01DX009 (ip), vehicle: saline with Tween-80): 140 % of control
- T/C (dose: 12.5 mg/kg/injection, schedule: Q01DX009 (ip), vehicle: saline with Tween-80): 130 % of control
- T/C [1]: 142 % of control
- T/C [5]: 140 % of control [7 of 10 alive]
- survivor count [5]: 0 of 10

SMILES: O=c1cc(-c2ccccc2)[nH]c2c1CCCC2
- survivor count [6]: 7 of 10

SMILES: c1ccc2[nH]ncc2c1
- survivor count [6]: 2 of 10

SMILES: N=C1CCCS1
- survivor count (dose: 100.0 mg/kg/injection, schedule: Q01DX009 (ip), vehicle: saline): 9 of 10
- survivor count [7]: 0 of 10
- survivor count (dose: 400.0 mg/kg/injection, schedule: Q01DX009 (ip), vehicle: saline): 0 of 10

SMILES: N[C@@H](Cc1ccc(N(CCCl)CCCl)cc1)C(=O)O
- T/C (dose: 0.5 mg/kg/injection, schedule: Q01DX009 (ip), vehicle: saline, evaluated on day 55): 141 and 148 % of control
- T/C (dose: 0.5 mg/kg/injection, schedule: Q01DX009 (ip), vehicle: saline, evaluated on day 60): 122, 123, 126 [9 of 10 alive], 142, 143 (2×), 147, 160, 174 % of control
- T/C (dose: 0.5 mg/kg/injection, schedule: Q01DX009 (ip), vehicle: water): 147 % of control
- T/C (dose: 1.0 mg/kg/injection, schedule: Q01DX009 (ip), vehicle: saline with Tween-80): 137 % of control
- T/C (dose: 1.0 mg/kg/injection, schedule: Q01DX009 (ip), vehicle: saline, evaluated on day 55): 161 and 162 % of control
- T/C (dose: 1.0 mg/kg/injection, schedule: Q01DX009 (ip), vehicle: saline, evaluated on day 60): 155, 156, 159 [9 of 10 alive], 161 [9 of 10 alive], 166, 178, 195, 197, 201 % of control
- T/C (dose: 2.0 mg/kg/injection, schedule: Q01DX009 (ip), vehicle: saline, evaluated on day 55): 178 and 182 % of control
- T/C (dose: 2.0 mg/kg/injection, schedule: Q01DX009 (ip), vehicle: saline, evaluated on day 60): 102, 159 (2×), 168, 177, 193, 196, 206, 223 % of control
- T/C (dose: 4.0 mg/kg/injection, schedule: Q01DX009 (ip), vehicle: saline, evaluated on day 55): 172 [9 of 10 alive] and 272 % of control
- T/C (dose: 4.0 mg/kg/injection, schedule: Q01DX009 (ip), vehicle: saline, evaluated on day 60): 98, 100, 115, 167, 189, 212, 257, 271 % of control
- survivor count (dose: 4.0 mg/kg/injection, schedule: Q01DX009 (ip), vehicle: saline): 10 of 10
- survivor count (dose: 4.0 mg/kg/injection, schedule: Q01DX009 (ip), vehicle: water): 10 of 10
- T/C (dose: 5.48 mg/kg/injection, schedule: Q01DX001 (ip), vehicle: other): 142 % of control
- T/C (dose: 8.0 mg/kg/injection, schedule: Q01DX009 (ip), vehicle: saline with Tween-80): 137 % of control [9 of 10 alive]
- T/C [8]: 129 % of control
- survivor count [8]: 7 of 10, 9 of 10, 10 of 10 (3×), 6 of 6
- survivor count (dose: 8.0 mg/kg/injection, schedule: Q01DX009 (ip), vehicle: water): 10 of 10
- survivor count (dose: 16.0 mg/kg/injection, schedule: Q01DX009 (ip), vehicle: saline): 9 of 10

SMILES: CC12CCC3C(CCC4CC(OC(=O)Cc5ccc(N(CCCl)CCCl)cc5)CCC43C)C1CCC(=O)N2 (centres undefined)
- T/C (dose: 6.0 mg/kg/injection, schedule: Q01DX009 (ip), vehicle: saline with Tween-80): 149 % of control
- survivor count (dose: 24.0 mg/kg/injection, schedule: Q01DX009 (ip), vehicle: saline with Tween-80): 10 of 10

SMILES: O=C(O)CCCc1ccc(N(CCCl)CCCl)cc1
- T/C (dose: 6.25 mg/kg/injection, schedule: Q01DX009 (ip), vehicle: saline with Tween-80): 140 % of control
- survivor count [1]: 0 of 10 and 7 of 10
- survivor count [2]: 0 of 10 (2×)

SMILES: COc1ccc(O)cc1
- T/C [2]: 130 % of control

SMILES: CNCCN=c1ccc2c3c1c(O)c1c(O)ccc(=O)c1c3[nH]n2CCNCCO
- survivor count (dose: 6.0 mg/kg/injection, schedule: Q01DX009 (ip), vehicle: water): 10 of 10
- survivor count (dose: 6.25 mg/kg/injection, schedule: Q01DX009 (ip), vehicle: water): 10 of 10
- survivor count (dose: 12.0 mg/kg/injection, schedule: Q01DX009 (ip), vehicle: water): 8 of 10
- survivor count (dose: 12.5 mg/kg/injection, schedule: Q01DX009 (ip), vehicle: water): 10 of 10
- survivor count (dose: 25.0 mg/kg/injection, schedule: Q01DX009 (ip), vehicle: water): 2 of 10
- survivor count [4]: 0 of 10

SMILES: CC(=O)c1ccc([NH-])c([NH-])c1.[Cl][Pt+2][Cl]
- T/C (dose: 20.0 mg/kg/injection, schedule: Q01DX009 (ip), vehicle: distilled water + Tween-80): 128 % of control
- T/C (dose: 40.0 mg/kg/injection, schedule: Q01DX009 (ip), vehicle: distilled water + Tween-80): 128 % of control
- T/C (dose: 80.0 mg/kg/injection, schedule: Q01DX009 (ip), vehicle: distilled water + Tween-80): 128 and 142 % of control
- T/C (dose: 160.0 mg/kg/injection, schedule: Q01DX009 (ip), vehicle: distilled water + Tween-80): 132 % of control

SMILES: CN(C)c1ccc2c(NCCCCCCNc3ccnc4cc(N(C)C)ccc34)ccnc2c1
- survivor count (dose: 50.0 mg/kg/injection, schedule: Q01DX009 (ip), vehicle: distilled water + alcohol): 8 of 10
